Results: US20240383953A1, “NOVEL NAN[…] NANOG PRION-LIKE REPEATS” (BAYLOR COLLEGE OF MEDICINE, priority 2021, published 2024)
Results are given in words; binding and its absence hold for the method and conditions named. Some binding calls cover weakened binding; strength is not graded here.

Protein sequences, listed by entry. Tags and fused reporters are not part of them. Residues count along the entry.
NANOG CTD (C-terminal domain) (Q9H9S0, residues 154-305): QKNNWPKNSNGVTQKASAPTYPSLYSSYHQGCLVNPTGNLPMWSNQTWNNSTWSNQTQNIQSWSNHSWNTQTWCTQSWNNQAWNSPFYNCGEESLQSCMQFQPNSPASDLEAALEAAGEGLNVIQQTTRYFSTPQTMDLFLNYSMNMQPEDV
NANOG WR (tryptophan repeat domain) (Q9H9S0, residues 196-240): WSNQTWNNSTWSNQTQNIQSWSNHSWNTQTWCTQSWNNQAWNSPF

Assays:
[1] = molecular target: NANOG CTD (C-terminal domain) (human) (UniProt Q9H9S0); test: ThT fluorescence aggregation assay
[2] = molecular target: NANOG CTD (C-terminal domain) (human) (UniProt Q9H9S0); test: SDD-AGE gels, stain-free and ThT-stained
[3] = molecular target: NANOG WR (tryptophan repeat domain) (human) (UniProt Q9H9S0); test: SDD-AGE gels, stain-free and ThT-stained

binding [1] | binding [2] | binding [3] | Substance
binds | binds | – | NANOG CTD (C-terminal domain) (from UniProt Q9H9S0 154-305)
– | – | binds | NANOG WR (tryptophan repeat domain) (from UniProt Q9H9S0 196-240)
